No constants are given. Whether binding was seen depends on the method and setting. In cells and extracts the contact can be indirect. These calls come from enrichment with a bait or labelling near it, and not all partners need be listed.
B1: KASI (β-ketoacyl-[acyl carrier protein] synthase I), endogenous (protein, UniProt P52410 47-473)
chain: ASTVSAPKRETDPKKRVVITGMGLVSVFGNDVDAYYEKLLSGESGISLIDRFDASKFPTRFGGQIRGFSSEGYIDGKNERRLDDCLKYCIVAGKKALESANLGGDKLNTIDKRKAGVLVGTGMGGLTVFSEGVQNLIEKGHRRISPFFIPYAITNMGSALLAIDLGLMGPNYSISTACATSNYCFYAAANHIRRGEADMMIAGGTEAAIIPIGLGGFVACRALSQRNDDPQTASRPWDKARDGFVMGEGAGVLVMESLEHAMKRGAPIVAEYLGGAVNCDAHHMTDPRADGLGVSSCIERCLEDAGVSPEEVNYINAHATSTLAGDLAEINAIKKVFKSTSGIKINATKSMIGHCLGAAGGLEAIATVKAINTGWLHPSINQFNPEQAVDFDTVPNEKKQHEVDVAISNSFGFGGHNSVVAFSAFKP

The chains behind the UniProt entries cited, without tags or fusion partners. Where a name states a change or a piece, a line headed by the entry shows the natural chain unless it says otherwise. Residues count along the entry.
UniProt Q56XV8, residues 33-575: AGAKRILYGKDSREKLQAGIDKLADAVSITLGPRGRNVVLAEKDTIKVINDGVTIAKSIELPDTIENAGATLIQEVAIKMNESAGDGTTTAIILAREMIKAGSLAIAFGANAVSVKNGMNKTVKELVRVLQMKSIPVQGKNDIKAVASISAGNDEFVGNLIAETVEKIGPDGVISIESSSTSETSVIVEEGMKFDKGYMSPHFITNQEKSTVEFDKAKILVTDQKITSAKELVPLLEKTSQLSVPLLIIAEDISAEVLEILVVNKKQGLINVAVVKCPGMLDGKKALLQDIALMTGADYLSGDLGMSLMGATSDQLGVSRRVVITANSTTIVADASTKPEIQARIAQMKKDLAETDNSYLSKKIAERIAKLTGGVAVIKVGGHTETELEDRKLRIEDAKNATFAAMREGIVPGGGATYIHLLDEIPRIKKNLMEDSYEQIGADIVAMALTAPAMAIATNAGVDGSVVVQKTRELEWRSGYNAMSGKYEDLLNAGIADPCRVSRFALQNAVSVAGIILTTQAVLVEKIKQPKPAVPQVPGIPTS
UniProt P21238, residues 47-586: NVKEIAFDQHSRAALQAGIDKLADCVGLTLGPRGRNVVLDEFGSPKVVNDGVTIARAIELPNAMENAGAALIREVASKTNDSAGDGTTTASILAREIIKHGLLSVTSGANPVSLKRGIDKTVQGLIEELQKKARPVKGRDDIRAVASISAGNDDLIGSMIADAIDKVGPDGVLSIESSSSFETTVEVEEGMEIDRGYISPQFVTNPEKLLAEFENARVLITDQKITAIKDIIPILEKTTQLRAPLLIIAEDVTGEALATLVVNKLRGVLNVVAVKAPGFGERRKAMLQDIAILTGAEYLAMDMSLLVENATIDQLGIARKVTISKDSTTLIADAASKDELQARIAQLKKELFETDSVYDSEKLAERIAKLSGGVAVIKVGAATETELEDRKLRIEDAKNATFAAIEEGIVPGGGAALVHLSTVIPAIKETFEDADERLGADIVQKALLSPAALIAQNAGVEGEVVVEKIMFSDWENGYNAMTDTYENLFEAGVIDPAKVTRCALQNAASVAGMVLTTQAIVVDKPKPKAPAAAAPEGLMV
UniProt Q9C667: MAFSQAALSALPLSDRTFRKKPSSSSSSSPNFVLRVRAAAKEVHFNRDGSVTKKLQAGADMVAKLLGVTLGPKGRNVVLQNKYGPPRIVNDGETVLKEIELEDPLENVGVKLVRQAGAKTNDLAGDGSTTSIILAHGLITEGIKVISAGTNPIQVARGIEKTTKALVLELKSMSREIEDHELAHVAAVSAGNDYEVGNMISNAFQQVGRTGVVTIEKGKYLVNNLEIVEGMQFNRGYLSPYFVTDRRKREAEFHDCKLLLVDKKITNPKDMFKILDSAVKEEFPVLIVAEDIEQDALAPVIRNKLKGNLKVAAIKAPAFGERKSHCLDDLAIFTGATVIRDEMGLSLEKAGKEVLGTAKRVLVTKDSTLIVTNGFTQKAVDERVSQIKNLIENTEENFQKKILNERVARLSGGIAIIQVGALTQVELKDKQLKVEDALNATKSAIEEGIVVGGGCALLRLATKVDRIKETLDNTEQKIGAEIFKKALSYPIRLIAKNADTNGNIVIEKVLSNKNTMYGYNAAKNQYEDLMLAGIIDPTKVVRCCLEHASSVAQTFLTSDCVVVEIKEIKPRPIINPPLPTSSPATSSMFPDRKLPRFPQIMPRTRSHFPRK
UniProt P21240: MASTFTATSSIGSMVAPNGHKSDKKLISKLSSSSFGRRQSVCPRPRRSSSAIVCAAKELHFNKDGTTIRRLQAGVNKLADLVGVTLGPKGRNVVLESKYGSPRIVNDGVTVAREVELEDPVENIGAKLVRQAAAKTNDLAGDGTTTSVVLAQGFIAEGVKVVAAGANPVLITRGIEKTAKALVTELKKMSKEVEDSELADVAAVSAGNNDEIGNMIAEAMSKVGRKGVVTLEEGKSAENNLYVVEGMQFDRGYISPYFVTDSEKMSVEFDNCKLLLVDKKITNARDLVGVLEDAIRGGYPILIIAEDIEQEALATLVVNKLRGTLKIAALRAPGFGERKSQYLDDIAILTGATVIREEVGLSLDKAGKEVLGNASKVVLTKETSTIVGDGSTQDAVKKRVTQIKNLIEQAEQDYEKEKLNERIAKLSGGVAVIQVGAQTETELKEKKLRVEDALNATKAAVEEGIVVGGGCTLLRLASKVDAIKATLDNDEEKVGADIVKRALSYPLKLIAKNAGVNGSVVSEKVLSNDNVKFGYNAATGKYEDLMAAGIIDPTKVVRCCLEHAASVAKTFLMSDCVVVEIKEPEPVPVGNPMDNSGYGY
UniProt C0Z361: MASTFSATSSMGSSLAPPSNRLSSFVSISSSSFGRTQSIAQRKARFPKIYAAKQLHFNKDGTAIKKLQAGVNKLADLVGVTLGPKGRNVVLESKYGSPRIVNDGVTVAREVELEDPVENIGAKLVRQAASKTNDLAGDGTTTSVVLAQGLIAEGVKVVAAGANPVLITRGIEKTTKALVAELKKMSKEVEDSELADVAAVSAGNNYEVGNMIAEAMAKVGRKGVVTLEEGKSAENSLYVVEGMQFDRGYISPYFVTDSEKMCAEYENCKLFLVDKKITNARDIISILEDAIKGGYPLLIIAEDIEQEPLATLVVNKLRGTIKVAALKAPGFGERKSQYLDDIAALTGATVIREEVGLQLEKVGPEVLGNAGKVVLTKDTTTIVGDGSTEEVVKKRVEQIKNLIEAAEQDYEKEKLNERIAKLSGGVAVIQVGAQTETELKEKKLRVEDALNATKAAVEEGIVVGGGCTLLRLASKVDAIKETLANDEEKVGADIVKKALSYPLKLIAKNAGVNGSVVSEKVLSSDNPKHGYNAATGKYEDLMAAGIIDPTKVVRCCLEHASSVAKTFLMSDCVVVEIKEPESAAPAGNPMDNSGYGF
UniProt Q9LJE4: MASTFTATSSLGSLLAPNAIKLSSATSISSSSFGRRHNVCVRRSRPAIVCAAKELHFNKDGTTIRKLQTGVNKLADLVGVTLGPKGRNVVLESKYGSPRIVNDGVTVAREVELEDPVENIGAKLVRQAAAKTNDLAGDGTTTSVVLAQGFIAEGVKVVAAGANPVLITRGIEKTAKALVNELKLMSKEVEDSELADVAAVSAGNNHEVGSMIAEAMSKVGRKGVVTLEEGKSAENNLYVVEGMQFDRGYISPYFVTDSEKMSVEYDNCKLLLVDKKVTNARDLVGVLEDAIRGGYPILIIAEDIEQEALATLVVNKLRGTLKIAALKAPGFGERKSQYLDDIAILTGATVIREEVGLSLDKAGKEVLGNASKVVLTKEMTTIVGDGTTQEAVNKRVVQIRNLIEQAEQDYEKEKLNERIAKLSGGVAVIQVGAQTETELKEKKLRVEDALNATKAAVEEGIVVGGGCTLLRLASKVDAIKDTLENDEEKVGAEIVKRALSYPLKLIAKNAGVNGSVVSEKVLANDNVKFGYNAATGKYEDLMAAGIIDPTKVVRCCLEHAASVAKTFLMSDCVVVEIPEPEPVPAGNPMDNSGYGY

How the values were obtained:
[1] = molecular target: CPNA2-HA (AtCpn60α2 with an HA tag at the C-terminus, from 35Spro:CPNA2-HA) (Arabidopsis thaliana) (UniProt Q56XV8); test: affinity purification with mass spectrometry; anti-HA microbeads (μMACS HA isolation kit) on lysates of chloroplasts from 7 DAG seedlings of 35Spro:CPNA2-HA or 35Spro:CPNA1-HA plants; 50 mM Tris-HCl pH 8.0, 10 mM ADP, 150 mM NaCl, 2.5 h at 4°C; washes with Triton X-100, deoxycholate and 5 mM ADP; SDS-PAGE and LC-MS/MS; two replicates; wild-type seedlings as control
[2] = molecular target: CPNA1-HA (AtCpn60α1 with an HA tag at the C-terminus, from 35Spro:CPNA1-HA) (Arabidopsis thaliana) (UniProt P21238); test: as above

Molecule | binding [1] | binding [2]
CPNB4 (AtCpn60β4), endogenous (from UniProt Q9C667) | binds | –
CPNB1 (AtCpn60β1), endogenous (from UniProt P21240) | binds | binds
CPNA1 (AtCpn60α1), endogenous (from UniProt P21238 47-586) | binds | –
CPNB3 (AtCpn60β3), endogenous (from UniProt C0Z361) | binds | –
CPNB2 (AtCpn60β2), endogenous (from UniProt Q9LJE4) | binds | binds
B1 | binds | –
